The list shows a part of the results. These are further read-outs of the screen, such as a control signal, another cell line or another target. No call is given for them. Compounds called inactive in the main read-out are mostly missing here. Potencies come from curve fits of mixed quality, noted in brackets.

Data on 40 molecules can be found in PubChem BioAssay AID493014 (National Center for Advancing Translational Sciences (NCATS), 2011).

The nature of the test: qHTS Assay to Find Inhibitors of Chronic Active B-Cell Receptor Signaling. Conditions: ABC-DLBCL IkBa-CBG/CBR reporter, luminescence ratio (green luciferase fused to IkBa over red control in TMD8 lymphoma cells), 4 h. The method, boiled down:
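TMD8 ABC-DLBCL cells carrying doxycycline-inducible green luciferase fused to IkappaBalpha plus unfused red luciferase were exposed to compounds (up to 46 uM) for 4 hrs at 37C. Activity came from the overlap-corrected green/red luminescence ratio.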

Setting [1] is: measured here: CBR red luminescence, cell number.
Where [2] appears, read: measured here: IkBa-CBG green luminescence.

In the case of `Cc1cc(C)nc(S/C=C/C(=O)c2ccc(F)cc2)n1`, the AC50 under setting [1] is 5.62 µM [rising, partial curve, poor fit].

In the case of `Cc1ccc(NC(=O)c2cc(S(=O)(=O)NCCC3=CCCCC3)ccc2F)cc1`, the concentration at half-maximal activity (AC50) under setting [1] was 20.6 µM [falling, single point].

For the molecule `CCc1ccc(NC(=O)CN(CC(=O)Nc2ccc(CC)cc2)CC(C)O)cc1` (configuration not stated), the AC50 under setting [1] is 35.5 µM [falling, partial curve, poor fit].

Regarding `COc1cc(NC(=O)Cn2cnc3c(NCc4ccccc4)ncnc32)cc(OC)c1OC`, the half-maximal activity concentration (AC50) under setting [1] is 16.4 µM [rising, single point].

As to `COC(=O)[C@@]1(Cc2ccc(OC)cc2)[C@H]2c3cc(C(=O)N(C)C)n(CCSCCO)c3C[C@H]2CN1C(=O)c1ccccc1`, the AC50 under setting [1] was 18.4 µM [falling, partial curve, poor fit].

With `COc1ccccc1NC(=O)CC1Nc2ccccc2NC1=O` (configuration not stated), the AC50 under setting [1] was 18.4 µM [falling, partial curve].

On to `Cc1cc(C)nc(NC(=O)c2cccs2)n1`, for which, under setting [1], the AC50 is 6.31 µM [falling, partial curve, poor fit].

`O=c1cc(NC2CCCCCC2)[nH]c(=O)[nH]1`: the concentration at half-maximal activity (AC50) under setting [1] is 0.116 µM [falling, full curve, poor fit].

For the molecule `CCOC(=O)c1nnc2c(Br)c(-c3ccccc3)nn2c1C`, the AC50 runs as follows: under setting [1], 29.1 µM [falling, single point]; under setting [2], 13 µM [rising, partial curve, poor fit].

Turning to `Cc1ccsc1/C=N/Nc1nc2ccccc2s1`, the AC50 under setting [1] is 16.4 µM [falling, partial curve].

Take `CC(=O)Oc1ccc(Cl)cc1/C=C/c1cc(OC(C)=O)c2ccccc2n1`: the half-maximal activity concentration (AC50) under setting [2] is 23.1 µM [rising, partial curve, poor fit].

Take `CC1(C)CC(=O)C=C(c2ccc(Cl)c(C(F)(F)F)c2)C1`: the concentration at half-maximal activity (AC50) under setting [1] is 32.6 µM [rising, single point].

Consider `CCC(=C/c1sc2ccc3ccccc3c2[n+]1C)/C=C1\Sc2ccc3ccccc3c2N1C`, for which the AC50 by setting is: under setting [1], 10 µM [rising, partial curve]; under setting [2], 11.2 µM [falling, partial curve].

In the case of `O=C(OCC(=O)c1ccc[nH]1)c1ccc(Cl)nc1`, under setting [1], the AC50 was 0.82 µM [rising, full curve, poor fit].

Consider `Cc1cccc(C(=O)Nc2ccccc2C(=O)NCc2ccco2)c1`, for which the AC50 under setting [1] is 22.4 µM [falling, single point].

For `CNC(=O)Nc1cccc(-c2cc(-c3c(Cl)cccc3Cl)no2)c1`, the AC50 under setting [1] was 35.5 µM [falling, single point].

`Cc1cc(OC(C(=O)O)c2ccccc2)c2c(C)c(Cc3ccccc3)c(=O)oc2c1` (configuration not stated): the AC50 under setting [1] is 35.5 µM [falling, single point].

`C[N+]12CCCCC1C(COC(=O)c1ccc3c(c1)OCO3)CCC2` (configuration not stated): under setting [1], the AC50 is 29.1 µM [rising, single point].

As for `CC(C)N1C(=O)CCC1C(=O)NCCc1ccccc1` (configuration not stated), the AC50 under setting [1] was 22.4 µM [rising, single point].

As to `COc1cc([N+](=O)[O-])ccc1NC(=O)CCCOc1ccccc1`, the AC50 under setting [1] is 2.51 µM [rising, full curve, poor fit].

Consider `C=CCn1c(N)c(C(=O)NCC2CCCO2)sc1=S` (configuration not stated), for which, under setting [1], the AC50 was 2.59 µM [rising, single point].

For `Cc1csc(SCC(=O)NC2CCCC2)n1`, under setting [1], the AC50 is 2.31 µM [falling, partial curve].

Turning to `CC(=O)Oc1cccc(-c2nc3ccccc3c(=O)o2)c1`, the AC50 under setting [1] was 7.94 µM [falling, partial curve, poor fit].

Turning to `Clc1ccc(SCc2cc(-c3ccccc3)no2)cc1`, under setting [1], the half-maximal activity concentration (AC50) is 0.562 µM [rising, full curve, poor fit].

With `CC(NC(=O)c1c(O)c2ccccc2n(C)c1=O)c1ccccc1` (configuration not stated), the AC50 under setting [1] is 12.6 µM [falling, partial curve, poor fit].

On to `CCOc1cc(N2CCOCC2)c(OCC)cc1NC(=O)CSc1ncccc1C(=O)O`, for which the AC50 under setting [1] was 14.6 µM [rising, partial curve, poor fit].

Regarding `COc1ccccc1NC(=O)COC(=O)CCc1ccc(S(=O)(=O)N2CCOCC2)cc1`, under setting [1], the AC50 was 0.82 µM [falling, full curve, poor fit].

Take `CC(C)N(C(=O)[C@H]1C[C@H](CC(=O)NCc2cccc(C(F)(F)F)c2)C(=O)N2CCc3c([nH]c4ccc(Cl)cc34)[C@]12C)C(C)C`: the AC50 under setting [1] is 2.31 µM [rising, partial curve, poor fit].

On to `CN(C(=O)c1ccccc1C(=O)OCC(=O)Nc1ccccc1)c1ccccc1`, for which, under setting [1], the AC50 is 23.1 µM [falling, single point].

As to `Cc1ccc2nc(SCc3ccc([N+](=O)[O-])cc3)[nH]c2c1`, the AC50 under setting [1] was 12.6 µM [falling, single point].

For `O=C(CSc1c2c(nc3cc(Cl)ccc13)CCCC2)NCc1ccco1`, the concentration at half-maximal activity (AC50) under setting [1] was 2.06 µM [falling, partial curve, poor fit].

In the case of `Cc1ccc(C(=O)Nc2nc(=O)n(C(=O)C3CC3)s2)cc1`, the AC50 under setting [1] was 11.6 µM [falling, single point].

For `Nc1ccccc1SC1CC(=O)N(c2ccc(Cl)c(Cl)c2)C1=O` (configuration not stated), the AC50 under setting [1] was 0.447 µM [rising, full curve, poor fit].

Turning to `COc1cccc(NC(=O)C2C3C=CC(O3)C2C(=O)NCc2cccnc2)c1` (configuration not stated), under setting [1], the concentration at half-maximal activity (AC50) was 14.1 µM [falling, single point].

As for `CCc1nc(SCC(=O)NCc2ccco2)c2c3c(sc2n1)CCCC3`, the AC50 under setting [1] is 23.1 µM [rising, partial curve, poor fit].

With `CCCNS(=O)(=O)c1ccc(OCC(=O)NCCCOC)cc1`, under setting [1], the AC50 was 29.1 µM [rising, single point].

Regarding `c1ccc(-c2noc(CN3CCN(c4ccccc4)CC3)n2)cc1`, the half-maximal activity concentration (AC50) under setting [1] was 6.51 µM [rising, single point].

For the molecule `Cc1nc2ccccc2n1/N=C/c1cccnc1`, the AC50 under setting [1] was 23.1 µM [falling, partial curve, poor fit].

As to `CC(=O)c1cnc2cc(-c3cccc(Br)c3)nn2c1C`, under setting [1], the AC50 is 14.1 µM [rising, partial curve, poor fit].

Turning to `Cc1ccccc1N=C1SC(CC(=O)Nc2ccc3ccccc3c2)C(=O)N1Cc1ccccn1` (configuration not stated), under setting [1], the AC50 is 18.4 µM [falling, partial curve, poor fit].
